Test results published in PubChem BioAssay AID588590 (National Center for Advancing Translational Sciences (NCATS), 2011).
Hit rate of the full screen: of about 390,000 compounds, about 4,000 (1%) were called active. This list was built around the results that the source calls inconclusive (neither active nor inactive); the mix of calls is not that of the screen. The call rests on the fitted dose curve; in most records, active means well fitted inhibition curve with a large enough effect; inconclusive means small, poorly fitted or top-dose-only effect, or another doubt; inactive means no such curve, though single readings can be large or run the other way. Potencies of inconclusive entries are doubtful fits and often do not repeat.
Potency means the concentration at half of the fitted maximal effect.

Protein sequences, listed by entry. Tags and fused reporters are not part of them. Lines headed by an entry give the natural chain unless they say otherwise; changes in a name come on top.
UniProt Q9UNA4: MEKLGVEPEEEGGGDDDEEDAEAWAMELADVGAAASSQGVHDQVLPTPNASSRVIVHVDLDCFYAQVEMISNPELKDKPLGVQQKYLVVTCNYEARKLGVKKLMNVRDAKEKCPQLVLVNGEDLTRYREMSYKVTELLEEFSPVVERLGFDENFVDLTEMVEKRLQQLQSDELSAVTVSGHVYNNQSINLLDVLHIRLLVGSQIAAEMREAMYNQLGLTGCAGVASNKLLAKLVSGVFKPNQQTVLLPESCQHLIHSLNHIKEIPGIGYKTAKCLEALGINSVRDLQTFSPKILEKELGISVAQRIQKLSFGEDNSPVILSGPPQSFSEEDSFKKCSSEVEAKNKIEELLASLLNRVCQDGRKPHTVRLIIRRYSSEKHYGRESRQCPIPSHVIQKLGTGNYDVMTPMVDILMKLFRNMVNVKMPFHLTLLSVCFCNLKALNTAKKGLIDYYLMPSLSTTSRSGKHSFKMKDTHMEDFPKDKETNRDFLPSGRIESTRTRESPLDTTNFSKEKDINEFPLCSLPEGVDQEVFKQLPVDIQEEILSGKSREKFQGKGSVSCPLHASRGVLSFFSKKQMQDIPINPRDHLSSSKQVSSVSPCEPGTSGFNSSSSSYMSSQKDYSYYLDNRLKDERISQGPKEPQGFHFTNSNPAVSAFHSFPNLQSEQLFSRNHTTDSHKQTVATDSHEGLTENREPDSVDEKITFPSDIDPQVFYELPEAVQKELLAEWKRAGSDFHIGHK

The compounds below were run against DNA polymerase iota (Homo sapiens) (UniProt Q9UNA4) (assay: qHTS for Inhibitors of Polymerase Iota). Conditions: Pol iota fluorescent replication assay, 10 min; series mostly up to 115 µM.
Summary of the method: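 Pol iota at 10 nM preincubated 15 min with compounds at room temperature; reaction started with fluorescent substrate, 50 nM final. Fluorescence read kinetically at 0 and 10 min; buffer-only wells as negative control.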
COC(=O)c1cc(NC(C)=O)ccc1N1CCOCC1 was tested, and the Potency was inconclusive: 89.1 µM [inhibitor, single point].
In the case of CCCCN(Cc1ccco1)S(=O)(=O)c1ccc(-c2ccc(=O)[nH]n2)s1, the Potency is reported as “inactive”.
In the case of CCc1cccc2c(-c3csc(=NC)n3C)c[nH]c12, the Potency is reported as inconclusive: 100 µM [inhibitor, single point].
For COc1ccc(N2CCN(C(=O)c3ccc(N4CCCCS4(=O)=O)cc3)CC2)cc1, the Potency was inconclusive: 89.1 µM [inhibitor, partial curve].
With COc1cc(/C=C/C(=O)O)cc(S(=O)(=O)N2CCCc3ccccc32)c1OC the Potency was inconclusive: 39.8 µM [inhibitor, single point].
With COC(=O)/C(C#N)=C/c1c(Oc2cc(C)cc(C)c2)nc2c(C)cccn2c1=O the Potency was inconclusive: 89.1 µM [inhibitor, single point].
For CN(CCCNC(=O)c1cc2c(=O)n(C)c3ccccc3c2s1)Cc1ccccc1, the Potency was “inactive”.
For Oc1ccc(Br)cc1C1C=C(c2ccc3c(c2)OCO3)NC(c2cccc(F)c2)N1 (configuration not stated), the Potency was inconclusive: 17.8 µM [inhibitor, full curve].
Cc1ccc(NC(=O)Cc2ccccc2Cl)cc1S(=O)(=O)N(C)C was tested, and the Potency was inconclusive: 79.4 µM [inhibitor, single point].
For Cc1c(C(=O)N2CC(C)OC(C)C2)sc2nc(-c3ccc(F)cc3)cn12 (configuration not stated), the Potency was inconclusive: 89.1 µM [inhibitor, single point].
For CC=Cc1cc(OC)c2c(c1)C(C)C(c1ccc(O)c(OC)c1)O2 (configuration not stated), the Potency was “inactive”.
With Cc1cc(C)n(CC(=O)n2c3c(c4ccccc42)CCCC3)n1 the Potency was inconclusive: 25.1 µM [inhibitor, single point].
COC(=O)/C=C1\N/C(=N\c2nc(C)cc(C)n2)N(c2ccc(Cl)cc2)C1=O was tested, and the Potency was inconclusive: 7.08 µM [inhibitor, partial curve, poor fit].
Cc1noc(NS(=O)(=O)c2ccc(NC(=O)Nc3ccc(Cl)c(Cl)c3)cc2)c1C was tested, and the Potency was inconclusive: 25.1 µM [inhibitor, partial curve, poor fit].
Cc1c(C(=O)Nc2nc(-c3ccccn3)cs2)oc2ccccc12 was tested, and the Potency was inconclusive: 14.1 µM [inhibitor, full curve, poor fit].
CCCOc1ccc(C(=O)Nc2ccc(S(=O)(=O)Nc3onc(C)c3C)cc2)cc1 was tested, and the Potency was inconclusive: 89.1 µM [inhibitor, single point].
With CCc1ccccc1NC(=O)CSc1n[nH]c(C)c1[N+](=O)[O-] the Potency was inconclusive: 89.1 µM [inhibitor, partial curve, poor fit].
For Cc1ccc(CNC(=O)CCc2nnc(Cc3ccc(-c4ccccc4)cc3)o2)o1, the Potency was inconclusive: 39.8 µM [inhibitor, partial curve, poor fit].
For CC[n+]1ccccc1/C=C/c1ccc(N(C)C)cc1, the Potency was inconclusive: 70.8 µM [inhibitor, partial curve, poor fit].
For CCc1ccccc1NC(=O)Nc1cc(C(=O)NCc2ccccc2OC)ccc1N1CCCC1, the Potency was inconclusive: 89.1 µM [inhibitor, single point].
For CC1(C)Cc2ccccc2C(NNC(=O)c2ccncc2)=N1, the Potency was inconclusive: 25.1 µM [inhibitor, single point].
For NC(=O)c1ccsc1NC(=O)COC(=O)Cc1ccsc1, the Potency was inconclusive: 79.4 µM [inhibitor, partial curve, poor fit].
For Oc1ccc(Nc2ccc3ccccc3c2)cc1, the Potency was inconclusive: 25.1 µM [inhibitor, partial curve, poor fit].
With Cc1ccc(/C=N/n2c(-c3ccccc3)n[nH]c2=S)cc1 the Potency was “inactive”.
For O=C1OCc2ccc(NC(=O)c3sccc3Cl)cc21, the Potency was inconclusive: 39.8 µM [inhibitor, single point].
CCOc1ccc(C2=Nn3c(nnc3-c3ccccc3OC)SC2)cc1 was tested, and the Potency was “inactive”.
For Cc1ccc(-c2nnc3ccc(SCC(N)=O)nn23)cc1, the Potency was inconclusive: 89.1 µM [inhibitor, partial curve, poor fit].
With CCOc1ccc(-n2c(C)cc(/C=N/Nc3nc(C)cc(=O)[nH]3)c2C)cc1 the Potency was “inactive”.
C=CCOc1c(Br)cc(/C=C2/NC(=S)N(C(C)=O)C2=O)cc1OC was tested, and the Potency was inconclusive: 25.1 µM [inhibitor, full curve, poor fit].
With COc1ccc(Cl)cc1C(=O)Nc1ccc(NC(=O)c2ccco2)cc1 the Potency was “inactive”.
For COc1ccc2nc3ccccc3nc2c1N, the Potency was inconclusive: 10 µM [inhibitor, full curve, poor fit].
With Cc1ccc(C(C)C)c(OCC(=O)NN2C(=O)c3ccccc3C2=O)c1 the Potency was inconclusive: 31.6 µM [inhibitor, single point].
For O=C(/C=C/c1ccccc1)NC(=S)NNC(=O)Cc1cccs1, the Potency was inconclusive: 100 µM [inhibitor, single point].
With CCN(CC)S(=O)(=O)c1ccc(OC)c(NC(=O)CSCc2c(C)noc2C)c1 the Potency was inconclusive: 89.1 µM [inhibitor, single point].
In the case of COc1ccc(Cl)cc1NC(=O)C1CCN(S(C)(=O)=O)CC1, the Potency is reported as “inactive”.
In the case of CN1C(=O)C(=O)/C(=C(/O)c2ccc(Br)cc2)C1c1ccccc1F (configuration not stated), the Potency is reported as inconclusive: 70.8 µM [inhibitor, partial curve].
With O=C(O)CSc1ccccn1 the Potency was inconclusive: 2.24 µM [inhibitor, full curve, poor fit].
Cc1cc(N/N=C/c2ccc(O)cc2)nc(NS(=O)(=O)c2ccccc2)n1 was tested, and the Potency was inconclusive: 56.2 µM [inhibitor, partial curve, poor fit].
For O=C(Cn1cc(CCO)nn1)N1CCNCC1, the Potency was inconclusive: 22.4 µM [inhibitor, single point].
In the case of CN(C)c1ccc(-c2nnc(-c3ccccc3F)o2)cc1, the Potency is reported as inconclusive: 35.5 µM [inhibitor, single point].
In the case of CCCC(OC(=O)CC1Sc2ccccc2NC1=O)C(=O)NCc1ccco1 (configuration not stated), the Potency is reported as inconclusive: 12.6 µM [inhibitor, full curve, poor fit].
With CCN1CCN(Cc2ccc(NC(=O)c3ccc(C)c(NC(=O)c4csc(-c5ccncc5)n4)c3)cc2C(F)(F)F)CC1 the Potency was inconclusive: 56.2 µM [inhibitor, single point].
